From PubChem BioAssay AID2685 (National Center for Advancing Translational Sciences (NCATS), 2010)
Screen size: about 320,000 compounds; about 2,100 (0.66%) were called active. The inconclusive results got no clear call from the source; some entries with a clear call stand among them for comparison. The call rests on the fitted dose curve; in most records, active means well fitted inhibition curve with a large enough effect in the signal ratio, with a control signal flat (not every such curve was filed as active); inconclusive means small, poorly fitted or top-dose-only effect, or effect the other way, or a change in a side signal; inactive means flat fitted curve, though single readings scatter; the % refers to the signal ratio. Potencies of inconclusive entries are doubtful fits and often do not repeat. Where a SMILES comes first, the peptide text is derived from it. [ ]: non-standard residue; d: D form. The star is where a group is joined. Tic = O=C(O)[C@@H]1Cc2ccccc2CN1; Boc = CC(C)(C)OC(=O)*

Test: qHTS Assay for Lipid Storage Modulators in Drosophila S3 Cells
Details: BODIPY lipid droplet fluorescence, 18-24 h, cells fed with added oleic acid; lipid storage change, negative = inhibition: at 46.1 µM (top of the series) unless noted
How it was run: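 Drosophila S3 cells got compounds at several concentrations plus oleic acid (400 uM solution). Laser-scanning cytometry with 488 nm excitation read lipid droplets at 500-530 nm and cells at 575-640 nm. Percent activity was relative to 20 uM Triacsin C.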
On the % scale 0 is the no-effect control and ±100 the full control effect; potency means the concentration at half of the fitted maximal effect.

Row | SMILES | lipid storage change, negative = inhibition | outcome | Potency
1 | O=C1CN(C(=O)CN2CCOCC2)C(c2ccccc2)c2cc(Br)ccc2N1 (configuration not stated) | inconclusive: -0.899% |  | 
2 | O=C(Nc1ccc(S(=O)(=O)N2CCOCC2)cc1)c1cccc(Br)c1 |  | inactive [at 46.1 µM] | 
3 | Cc1cc(C(=O)Nc2ccc(S(=O)(=O)N3CCOCC3)cc2)c(C)o1 | inconclusive: -8.9% |  | 
4 | CCOC(=O)c1sc(NC(=O)C2CCCO2)c(C(=O)OCC)c1C (configuration not stated) |  |  | inconclusive: 0.092 µM [activator, full curve, poor fit]
5 | CCCN(CCC)C(=O)Cn1c(=O)n(CCCC(=O)NCc2ccco2)c(=O)c2sccc21 | inactive: -0.536% |  | 
6 | COc1cc(/C=N/NC(=S)NC2CC3C=CC2C3)cc(OC)c1OC (configuration not stated) | inconclusive: -11% |  | 
7 | COc1ccc(OC)c(CCNC(=O)CCc2nnc3ccc(N4CCCC4)nn23)c1 |  |  | inconclusive: 29.1 µM [cytotoxic, single point]
8 | Cc1cc(SCC(=O)N/N=C/c2ccc(O)cc2O)c(C)cc1Br |  |  | inconclusive: 2.91 µM [activator, single point]
9 | COc1cccc(CNC(=O)COC(=O)CN(C)S(=O)(=O)c2ccc(NC(C)=O)cc2)c1 | inconclusive: 11.9% |  | 
10 | Cc1ccc2oc(Nc3nc(C)cc(C)n3)nc2c1 | inconclusive: 41.3% |  | 
11 | O=C(C(c1ccccc1)c1ccccc1)N1CCN(Cc2ccccn2)CC1 | inconclusive: 37.4% |  | 
12 | CC(=O)N1CCN(S(=O)(=O)c2cccc(C(=O)OCc3cccc(F)c3)c2)CC1 |  |  | active: 6.51 µM
13 | O=C(CC1Sc2ccccc2NC1=O)NCc1cccc(Cl)c1 (configuration not stated) | inconclusive: -8.06% |  | 
14 | O=C(Nc1ccc(F)cc1F)c1cc2ccccc2oc1=O | inconclusive: -22.2% |  | 
15 | O=S(=O)(Nc1ccc(N2CCCCC2)cc1)c1ccccc1 |  |  | inconclusive: 4.11 µM [activator, full curve, poor fit]
16 | CC1Oc2ccccc2N(CC(=O)N2CCCC2)C1=O (configuration not stated) | inconclusive: -34.6% |  | 
17 | Cc1ccc(C)c(OCCCN2CCc3ccccc3C2)c1 | inconclusive: 51.4% |  | 
18 | O=C1NC2=C(C(=O)CCC2)C(c2ccccc2)N1 (configuration not stated) | inconclusive: 12.9% |  | 
19 | Cc1ccc2nc(N(CCCN(C)C)C(=O)CCc3ccccc3)sc2c1 | inconclusive: -16.8% |  | 
20 | CCn1cc(C(=O)NCc2ccc(C)o2)c2cc(OC)c(OC)cc2c1=O | inconclusive: 7.63% |  | 
21 | CCOC(=O)C1=C(NC(=O)c2ccc(Br)o2)Nc2ccccc2N=C1 | inconclusive: 0.805% |  | 
22 | COc1cc(C(=O)O/N=C2\C=CC(=O)C(C)=C2)cc(OC)c1OC |  |  | inconclusive: 18.4 µM [falling, single point]
23 | COc1ccc2oc(C(=O)NCc3ccco3)c(C)c2c1 | inconclusive: 6.32% |  | 
24 | CCCOc1ccc(C(=O)Nc2ccc3c(c2)OCCO3)cc1 |  |  | inconclusive: 20.6 µM [activator, single point]
25 | COC(=O)[C@H](C)NC(=O)Nc1ccc(OC)cc1OC | inconclusive: 55.6% |  | 
26 | COc1ccc(NC(=O)C(C)N2C(=O)c3ccccc3S2(=O)=O)c(OC)c1 (configuration not stated) |  |  | inconclusive: 8.2 µM [activator, partial curve]

Quoted from the listing:
Value of COc1cc(/C=N/NC(=S)NC2CC3C=CC2C3)cc(OC)c1OC (configuration not stated) under lipid storage change, negative = inhibition: inconclusive: -11%
Value of Cc1cc(C(=O)Nc2ccc(S(=O)(=O)N3CCOCC3)cc2)c(C)o1 under lipid storage change, negative = inhibition: inconclusive: -8.9%
Value of O=S(=O)(Nc1ccc(N2CCCCC2)cc1)c1ccccc1 under Potency: inconclusive: 4.11 µM [activator, full curve, poor fit]
Value of CCCOc1ccc(C(=O)Nc2ccc3c(c2)OCCO3)cc1 under Potency: inconclusive: 20.6 µM [activator, single point]

A draw from above in order of length of the SMILES, ascending:
Row | SMILES | lipid storage change, negative = inhibition | outcome | Potency
14 | O=C(Nc1ccc(F)cc1F)c1cc2ccccc2oc1=O | inconclusive: -22.2% |  | 
15 | O=S(=O)(Nc1ccc(N2CCCCC2)cc1)c1ccccc1 |  |  | inconclusive: 4.11 µM [activator, full curve, poor fit]
7 | COc1ccc(OC)c(CCNC(=O)CCc2nnc3ccc(N4CCCC4)nn23)c1 |  |  | inconclusive: 29.1 µM [cytotoxic, single point]

Next part:

Row | SMILES | lipid storage change, negative = inhibition | outcome | Potency
27 | COc1ccc(OC)c(S(=O)(=O)NCC(c2ccc(F)cc2)N2CCN(C)CC2)c1 (configuration not stated) | inconclusive: 2.16% |  | 
28 | Cc1c(NC(=O)COC(=O)c2ncc(Cl)c(Cl)c2Cl)c(=O)n(-c2ccccc2)n1C | inconclusive |  | 
29 | CCN1CCN(Cc2nc3c(c(=O)n(C)c(=O)n3C)n2Cc2ccccc2Cl)CC1 | inconclusive: -0.911% |  | 
30 | O=C1CC(N2CCSCC2)C(=O)N1c1ccccc1 (configuration not stated) | inconclusive: 16.1% |  | 
31 | O=C(NCc1ccccc1)c1ccc(NS(=O)(=O)c2cccs2)cc1 | inconclusive: -27.5% |  | 
32 | CCn1nc(C(=O)Nc2ccccc2C)c(Cl)c1Cl | inconclusive: 29.3% |  | 
33 | O=C(COC(=O)c1cncc(Br)c1)Nc1ccc(N2CCCCC2)cc1 | inconclusive: 9.31% |  | 
34 | O=C(N/N=C/c1cccs1)c1cccc(S(=O)(=O)Nc2ccc(Cl)cc2)c1 | inconclusive: -86.5% |  | 
35 | CC(=O)c1ccc(NC2OC(CO)C(O)C(O)C2O)cc1 (configuration not stated) |  |  | active: 32.6 µM
36 | Cc1ccc(C(=O)N(C)CCOc2ccccc2)cc1S(=O)(=O)N1CCOCC1 | inconclusive: -23.3% |  | 
37 | O=C(NCc1ccccc1Cl)c1ccc(-c2ccccc2)cc1 | inconclusive: 29.9% |  | 
38 | Cc1ccc(N2CCN(C(=S)Nc3ccccc3C)CC2)cc1 |  |  | inconclusive: 29.1 µM [activator, single point]
39 | O=C(CCCCCNC(=O)N1CCn2c1nc1ccccc12)N[C@@H](Cc1ccccc1)C(=O)O | inconclusive: 21.6% |  | 
40 | COCCCNc1oc(COc2ccc(Cl)cc2Cl)nc1C#N | inconclusive: 10.9% [at 9.22 µM] |  | 
41 | COC(=O)c1cccc(COC(=O)c2ccc(CS(=O)(=O)c3ccc(C)cc3)cc2)c1 |  |  | inconclusive: 29.1 µM [activator, single point]
42 | O=C(Nc1ccc2c(c1)OCCO2)N1CCN(c2ccc(F)cc2)CC1 | inconclusive: 50.1% |  | 
43 | Cc1cc2c(cc1S(=O)(=O)NCC(C)c1ccccc1)n(C)c(=O)c(=O)n2C (configuration not stated) |  |  | inconclusive: 4.11 µM [falling, full curve, poor fit]
44 | CC[C@@H](C)C(NC(=O)OC(C)(C)C)c1cn([C@@H](CCC(=O)OC(C)(C)C)C(=O)N2CCN(C(=O)OC(C)(C)C)CC2)nn1 (some centres not stated) |  |  | inconclusive: 9.2 µM [falling, partial curve, poor fit]
45 | Cc1ccc2c(c1)N(CC(=O)OC(CC(C)C)C(=O)NC1CCCC1)C(=O)CO2 (configuration not stated) |  |  | inconclusive: 29.1 µM [activator, single point]
46 | N#C/C(=N\Nc1ccc(Cl)c(Cl)c1)C(=O)C1CC1 | inconclusive: 1.62% |  | 
47 | COc1ccccc1N1CCN(S(=O)(=O)CCNC(=O)Cc2ccc(F)cc2)CC1 | inconclusive: 36.5% |  | 
48 | CN1C(=O)C(CCC(N)=O)NC1=S (configuration not stated) | inconclusive: -24.8% |  | 
49 | Cc1cc(C(=O)NC2CCCCC2)c(C)n1-c1ccc(F)cc1 | inactive: 6.96% |  | 
50 | Cc1nn(CCCC(=O)Nc2cc(Oc3ccc(F)cc3)cc([N+](=O)[O-])c2)c(C)c1[N+](=O)[O-] |  |  | inconclusive: 29.1 µM [falling, single point]
51 | S=C(NCCN1CCOCC1)Nc1ccc(Br)cc1 | inconclusive: -1.33% |  | 
52 | Cc1cc(NC(=O)c2ccccc2)n(C)n1 | inconclusive: 8.39% |  | 

Row | SMILES | lipid storage change, negative = inhibition | outcome | Potency
53 | O=C(c1ccc(F)cc1)c1c[nH]c(C(=O)NCCCN2CCOCC2)c1 | inconclusive: 8.5% |  | 
54 | CC1(C)c2ccccc2N2CC(=O)N[C@@]21/C=C/C=C/c1ccccc1 |  |  | inconclusive: 20.6 µM [activator, single point]
55 | COc1ccc(-c2c(C)sc(NC(=O)c3ccnn3C)c2C#N)cc1 | inconclusive: 1.03% |  | 
56 | Cc1cc(C(=O)OCC(=O)Nc2ccc(F)cc2)c(C)o1 |  |  | inconclusive: 20.6 µM [activator, single point]
57 | CC(=O)NCCC(=O)Nc1nc(-c2cccs2)c(-c2cccs2)s1 | inactive: 11.3% |  | 
58 | CCN=C1S/C(=C\c2sccc2C)C(=O)N1CC |  |  | inconclusive: 20.6 µM [falling, single point]
59 | COc1cc2[nH]c(=O)n(Cc3ccc(C(=O)NCCCN4CCN(C)CC4)cc3)c(=O)c2cc1OC |  |  | inconclusive: 3.26 µM [falling, full curve]
60 | COC(=O)c1ccc(CSc2nnc(Nc3ccc(OC)cc3)s2)o1 |  |  | inconclusive: 4.61 µM [falling, single point]
61 | CCc1c(C#N)c(SCCC(=O)Nc2cccc(OC)c2)nc2c1C(=O)CC(C)(C)C2 |  |  | inconclusive: 29.1 µM [activator, single point]
62 | COc1ccc(NC(=O)c2cc([N+](=O)[O-])nn2Cc2ccccc2)c(C)c1 | inconclusive: -29% |  | 
63 | CCOC(=O)[C@H]1[C@H]2COc3ccc(Br)cc3[C@@H]2N2C(=O)c3ccc(Cl)cc3NC(=O)[C@@]12C | inconclusive: 9.05% |  | 
64 | O=C(O)CCC(=O)N1CCN(c2nc(-c3ccccc3)c3ccccc3n2)CC1 | inconclusive: -47.1% |  | 
65 | COCc1ccc(-c2c(-c3cccc(OC)c3)sc3ccc(OC)cc23)cc1 | inconclusive: 26.7% |  | 
66 | Cc1cccc(C(=O)NCC(=O)N2CCN(S(=O)(=O)c3ccc4c(c3)OCCO4)CC2)c1 | inconclusive: 8.42% |  | 
67 | CCCCNC(=O)C1CCCN(S(=O)(=O)c2ccc(S(=O)(=O)NCC(C)C)cc2)C1 (configuration not stated) | inconclusive: 69.5% |  | 
68 | O=C1CC(N2CCN(C3CC(=O)N(CCc4ccccc4)C3=O)CC2)C(=O)N1CCc1ccccc1 (configuration not stated) | inconclusive: 24.7% |  | 
69 | CCCc1cc(=O)[nH]c(SCC(=O)c2cc(C)n(CCOC)c2C)n1 | inconclusive: -37.4% |  | 
70 | COc1ccccc1-n1c(Cc2cccs2)n[nH]c1=S | inconclusive: 5.2% |  | 
71 | Cc1cc(C(=O)COc2cccc(-n3cnnn3)c2)c(C)n1-c1ccccc1 |  |  | inconclusive: 18.4 µM [falling, single point]
72 | CC(C)(C)OC(=O)N1Cc2ccccc2C[C@H]1C(=O)N1CCC[C@H]1C(=O)O (Boc-[Tic]-Pro-OH) | inconclusive: -6.6% |  | 
73 | Cc1ccc(S(=O)(=O)c2nc(Nc3nccs3)sc2Cl)cc1 | inconclusive: 15.6% |  | 
74 | O=C(CNC(=O)c1cccs1)NCC(=O)OCc1c(F)cccc1Cl |  |  | inconclusive: 16.4 µM [rising, partial curve]
75 | CCN(CC(=O)Nc1ccccc1OC)C(=O)C1CCCC1 |  | inactive [at 46.1 µM] | 
76 | O=C(C[n+]1ccc(C(=O)NCCCO)cc1)c1cccc(Br)c1 | inconclusive: -5.7% |  | 
77 | O=C(CSc1ccc(Cl)cc1)N/N=C/c1ccc([N+](=O)[O-])o1 |  |  | inconclusive: 29.1 µM [falling, single point]
